We go through one molecule from the supplement of paper PMC8728848.

What all share (assay): glycan array binding signal (z-score within array); higher = stronger binding
Holding throughout (conditions): glycan notation: IUPAC condensed, linker removed

In test [1] the target is Gal(b1-4)GlcNAc(b1-2)[Gal(b1-4)GlcNAc(b1-6)]Man(a1-6)[GlcNAc(b1-4)][Gal(b1-4)GlcNAc(b1-2)Man(a1-3)]Man(b1-4)GlcNAc(b1-4)GlcNAc. The method, boiled down: (§1)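 Glycan array data came from 3228 arrays in the Consortium for Functional Glycomics database, and only arrays with an available protein sequence were kept. Glycan names were put into IUPAC-condensed notation, and columns mapping to the same glycan were averaged. The binding signal is a within-array Z-score, averaged across arrays of one protein sequence run at different concentrations or buffers and across linkers. A negative Z-score can be read as non-binding.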

Test [2] has as its target Gal(b1-4)GlcNAc(b1-2)[Gal(b1-4)GlcNAc(b1-6)]Man(a1-6)[GlcNAc(b1-4)][Gal(b1-4)GlcNAc(b1-2)[Gal(b1-4)GlcNAc(b1-4)]Man(a1-3)]Man(b1-4)GlcNAc(b1-4)[Fuc(a1-6)]GlcNAc. In outline: as §1
Test [3] addresses Gal(b1-4)GlcNAc(b1-3)Gal(b1-3)GalNAc. The method, boiled down: as §1
Test [4] has as its target Gal(b1-4)GlcNAc(b1-3)Gal(b1-3)GlcNAc. The method, boiled down: as §1
In test [5] the target is Gal(b1-4)GlcNAc(b1-3)Gal(b1-4)Glc. In outline: as §1
Test [6] deals with Gal(b1-4)GlcNAc(b1-3)Gal(b1-4)GlcNAc. The method, boiled down: as §1
Test [7] concerns the target Gal(b1-4)GlcNAc(b1-3)Gal(b1-4)GlcNAc(b1-2)Man(a1-3)[Gal(b1-4)GlcNAc(b1-3)Gal(b1-4)GlcNAc(b1-2)Man(a1-6)]Man(b1-4)GlcNAc(b1-4)GlcNAc. The method, boiled down:
as §1

The target of test [8] is Gal(b1-4)GlcNAc(b1-3)Gal(b1-4)GlcNAc(b1-2)Man(a1-3)[Gal(b1-4)GlcNAc(b1-3)Gal(b1-4)GlcNAc(b1-2)Man(a1-6)]Man(b1-4)GlcNAc(b1-4)[Fuc(a1-6)]GlcNAc. The method, boiled down: as §1
For test [9], the target named is Gal(b1-4)GlcNAc(b1-3)Gal(b1-4)GlcNAc(b1-2)[Gal(b1-4)GlcNAc(b1-3)Gal(b1-4)GlcNAc(b1-6)]Man(a1-6)[Gal(b1-4)GlcNAc(b1-3)Gal(b1-4)GlcNAc(b1-2)Man(a1-3)]Man(b1-4)GlcNAc(b1-4)GlcNAc. The method, boiled down:
as §1

The target in test [10] is Gal(b1-4)GlcNAc(b1-3)Gal(b1-4)GlcNAc(b1-2)[Gal(b1-4)GlcNAc(b1-3)Gal(b1-4)GlcNAc(b1-6)]Man(a1-6)[Gal(b1-4)GlcNAc(b1-3)Gal(b1-4)GlcNAc(b1-2)Man(a1-3)]Man(b1-4)GlcNAc(b1-4)[Fuc(a1-6)]GlcNAc. The method, boiled down: as §1
In test [11] the target is Gal(b1-4)GlcNAc(b1-3)Gal(b1-4)GlcNAc(b1-3)Gal(b1-4)GlcNAc. In outline:
as §1

Test [12] deals with Gal(b1-4)GlcNAc(b1-3)Gal(b1-4)GlcNAc(b1-3)Gal(b1-4)GlcNAc(b1-2)Man(a1-3)[Gal(b1-4)GlcNAc(b1-3)Gal(b1-4)GlcNAc(b1-3)Gal(b1-4)GlcNAc(b1-2)Man(a1-6)]Man(b1-4)GlcNAc(b1-4)GlcNAc. In outline:
as §1

The target of test [13] is Gal(b1-4)GlcNAc(b1-3)Gal(b1-4)GlcNAc(b1-3)Gal(b1-4)GlcNAc(b1-2)Man(a1-3)[Gal(b1-4)GlcNAc(b1-3)Gal(b1-4)GlcNAc(b1-3)Gal(b1-4)GlcNAc(b1-2)Man(a1-6)]Man(b1-4)GlcNAc(b1-4)[Fuc(a1-6)]GlcNAc. The method, boiled down: as §1
The target of test [14] is Gal(b1-4)GlcNAc(b1-3)Gal(b1-4)GlcNAc(b1-3)Gal(b1-4)GlcNAc(b1-2)[Gal(b1-4)GlcNAc(b1-3)Gal(b1-4)GlcNAc(b1-3)Gal(b1-4)GlcNAc(b1-6)]Man(a1-6)[Gal(b1-4)GlcNAc(b1-3)Gal(b1-4)GlcNAc(b1-3)Gal(b1-4)GlcNAc(b1-2)Man(a1-3)]Man(b1-4)GlcNAc(b1-4)[Fuc(a1-6)]GlcNAc. The method, boiled down:
as §1

Test [15] addresses Gal(b1-4)GlcNAc(b1-3)Gal(b1-4)GlcNAc(b1-3)Gal(b1-4)GlcNAc(b1-3)Gal(b1-4)GlcNAc(b1-2)Man(a1-3)[Gal(b1-4)GlcNAc(b1-3)Gal(b1-4)GlcNAc(b1-3)Gal(b1-4)GlcNAc(b1-3)Gal(b1-4)GlcNAc(b1-2)Man(a1-6)]Man(b1-4)GlcNAc(b1-4)GlcNAc. The method, boiled down:
as §1

Test [16] addresses Gal(b1-4)GlcNAc(b1-3)Gal(b1-4)GlcNAc(b1-3)Gal(b1-4)GlcNAc(b1-3)Gal(b1-4)GlcNAc(b1-2)Man(a1-3)[Gal(b1-4)GlcNAc(b1-3)Gal(b1-4)GlcNAc(b1-3)Gal(b1-4)GlcNAc(b1-3)Gal(b1-4)GlcNAc(b1-2)Man(a1-6)]Man(b1-4)GlcNAc(b1-4)[Fuc(a1-6)]GlcNAc. In outline: as §1
In test [17] the target is Gal(b1-4)GlcNAc(b1-3)Gal(b1-4)GlcNAc(b1-3)Gal(b1-4)GlcNAc(b1-3)Gal(b1-4)GlcNAc(b1-2)[Gal(b1-4)GlcNAc(b1-3)Gal(b1-4)GlcNAc(b1-3)Gal(b1-4)GlcNAc(b1-3)Gal(b1-4)GlcNAc(b1-6)]Man(a1-6)[Gal(b1-4)GlcNAc(b1-3)Gal(b1-4)GlcNAc(b1-3)Gal(b1-4)GlcNAc(b1-3)Gal(b1-4)GlcNAc(b1-2)Man(a1-3)]Man(b1-4)GlcNAc(b1-4)[Fuc(a1-6)]GlcNAc. The method, boiled down:
as §1

Test [18] has as its target Gal(b1-4)GlcNAc(b1-3)Gal(b1-4)GlcNAc(b1-3)Gal(b1-4)GlcNAc(b1-3)Gal(b1-4)GlcNAc(b1-3)Gal(b1-4)GlcNAc(b1-2)Man(a1-3)[Gal(b1-4)GlcNAc(b1-3)Gal(b1-4)GlcNAc(b1-3)Gal(b1-4)GlcNAc(b1-3)Gal(b1-4)GlcNAc(b1-3)Gal(b1-4)GlcNAc(b1-2)Man(a1-6)]Man(b1-4)GlcNAc(b1-4)GlcNAc. In outline: as §1
Test [19] addresses Gal(b1-4)GlcNAc(b1-3)Gal(b1-4)GlcNAc(b1-3)Gal(b1-4)GlcNAc(b1-3)Gal(b1-4)GlcNAc(b1-3)Gal(b1-4)GlcNAc(b1-2)Man(a1-3)[Gal(b1-4)GlcNAc(b1-3)Gal(b1-4)GlcNAc(b1-3)Gal(b1-4)GlcNAc(b1-3)Gal(b1-4)GlcNAc(b1-3)Gal(b1-4)GlcNAc(b1-2)Man(a1-6)]Man(b1-4)GlcNAc(b1-4)[Fuc(a1-6)]GlcNAc. The method, boiled down: as §1
For test [20], the target named is Gal(b1-4)GlcNAc(b1-3)Gal(b1-4)GlcNAc(b1-3)Gal(b1-4)GlcNAc(b1-3)Gal(b1-4)GlcNAc(b1-3)Gal(b1-4)GlcNAc(b1-2)[Gal(b1-4)GlcNAc(b1-3)Gal(b1-4)GlcNAc(b1-3)Gal(b1-4)GlcNAc(b1-3)Gal(b1-4)GlcNAc(b1-3)Gal(b1-4)GlcNAc(b1-6)]Man(a1-6)[Gal(b1-4)GlcNAc(b1-3)Gal(b1-4)GlcNAc(b1-3)Gal(b1-4)GlcNAc(b1-3)Gal(b1-4)GlcNAc(b1-3)Gal(b1-4)GlcNAc(b1-2)Man(a1-3)]Man(b1-4)GlcNAc(b1-4)[Fuc(a1-6)]GlcNAc. The method, boiled down:
as §1

The target in test [21] is Gal(b1-4)GlcNAc(b1-3)Gal(b1-4)GlcNAc(b1-3)Gal(b1-4)GlcNAc(b1-3)Gal(b1-4)GlcNAc(b1-3)Gal(b1-4)GlcNAc(b1-3)Gal(b1-4)GlcNAc(b1-2)Man(a1-3)[Gal(b1-4)GlcNAc(b1-3)Gal(b1-4)GlcNAc(b1-3)Gal(b1-4)GlcNAc(b1-3)Gal(b1-4)GlcNAc(b1-3)Gal(b1-4)GlcNAc(b1-3)Gal(b1-4)GlcNAc(b1-2)Man(a1-6)]Man(b1-4)GlcNAc(b1-4)GlcNAc. In outline:
as §1

Test [22] deals with Gal(b1-4)GlcNAc(b1-3)Gal(b1-4)GlcNAc(b1-3)GalNAc. In outline: as §1
Test [23] addresses Gal(b1-4)GlcNAc(b1-3)Gal(b1-4)GlcNAc(b1-3)[Gal(b1-4)GlcNAc(b1-3)Gal(b1-4)GlcNAc(b1-6)]GalNAc. The method, boiled down:
as §1

The other results are listed elsewhere or left out.

B1: FimA-N2 (Actinomyces oris) (protein)
chain: MHHHHHHSSGVDLGTENLYFQSNAWIYDVNVYPKNEAIDVDKTIQAQKLNGYGVGSLIKFPVESTAPTLDAKSFYKYFQLKDTLDERLSEVTATDVSLEGTPLQPTDYKVETKQQTVTVTFTAEGLKKIKAAPGKKVSAVFQGKVTKAGNGAITNRAQVISDTLYAEQPPTPETPPTDPENPPTSDEVISRWGDLSIKKVDTHQQGQTKA
For the molecule B1, the “glycan array binding signal (z-score)” value in [1] was -0.298; in test [2] it was 0.109; in [3], -1.33; in test [4], -0.99; in [5] it was -0.125; in test [6], 1.55. Besides, the “glycan array binding signal (z-score)” value in [7] stood at 0.469; in test [8], 0.462; in test [9], 1.86; in [10] it was 0.583; in [11], 0.154; in [12], 0.781. For the same molecule, the “glycan array binding signal (z-score)” value in [13] was 1.19; in test [14] it was -0.085; in test [15], -0.799; in test [16], 0.949; in test [17], 0.488; in test [18], 0.294. Besides, the “glycan array binding signal (z-score)” value in test [19] is -0.168; in test [20], 0.469; in [21], -0.052; in test [22], 0.077; in test [23], -0.386.
